According to patent publication EP4821935A1, “MACROCYCLIC COMPOUND CONTAINING AMIDE SUBSTITUTION” (dated 2026):
The match of structure and compound is tentative.

Key:
AsPc-1 cells = experiment: Assay for inhibitory activity for AsPc-1 cell proliferation (CCK-8); conditions: read-out: Inhibitory activity IC50 for AsPc-1 cell proliferation, 72 h incubation, CCK-8, 5000 nM-0.31 nM
Method: AsPc-1 cells in a well-growing state were collected into a centrifuge tube, adjusted to a cell density of 3 × 10^4 cells/mL, and inoculated onto a 96-well plate (100 µL/well). The compounds were added using a nanoliter pipettor such that the final concentrations of the compounds were 5000 nM-0.31 nM (the addition was performed in duplicate). Meanwhile, a control was set. After 72 h of incubation in the cell incubator, the assay reagent CCK-8 (manufacturer: Dojindo Laboratories; 10 µL/well) was added. After 3 h of incubation in the cell incubator, the absorbance values were measured at 450 nm on a PerkinElmer Envision microplate reader. A four-parameter analysis was performed, a dose-response curve was fitted, and IC50 was calculated. A represents that IC50 < 100 nM; B represents that 100 nM ≤ IC50 < 500 nM.

Capan-1 cells = experiment: Assay for inhibitory activity for Capan-1 cell proliferation (CCK-8); conditions: read-out: Inhibitory activity IC50 for Capan-1 cell proliferation, 5 days incubation, CCK-8, 20000 nM-9.1 nM
Method: Capan-1 cells in a well-growing state were collected into a centrifuge tube, adjusted to a cell density of 1.5 × 10^4 cells/mL, and inoculated onto a 96-well plate (100 µL/well). The compounds were added using a nanoliter pipettor such that the final concentrations of the compounds were 20000 nM-9.1 nM (the addition was performed in duplicate). Meanwhile, a control was set. After 5 days of incubation in the cell incubator, the assay reagent CCK-8 (manufacturer: Dojindo Laboratories, Beijing; 10 µL/well) was added. After 4 h of incubation in the cell incubator, the absorbance values were measured at 450 nm on a PerkinElmer Envision microplate reader. A four-parameter analysis was performed, a dose-response curve was fitted, and IC50 was calculated. A represents that IC50 < 100 nM; B represents that 100 nM ≤ IC50 < 500 nM. Table 1. Results of cell proliferation inhibition assay for compounds

IC50 (AsPc-1 cells): < 100 nM
SMILES: CCn1c(-c2cc(N3CCN(C)CC3)cnc2[C@H](C)OC)c2c3cc(ccc31)-c1csc(n1)C[C@H](NC(=O)C1CC=C(C)CC1)C(=O)N1CCC[C@H](N1)C(=O)OCC(C)(C)C2 (some centres unmarked)
IC50 (Capan-1 cells): < 100 nM
